Measured values from PubChem BioAssay AID190 (DTP/NCI, 2004).
The list shows only some results of the screen, not a fair sample: it gathers tests that were run many times, whatever their T/C, doses with no T/C, and many T/C values between a quarter and a half above the control. Other doses and runs of a compound stand elsewhere. T/C gives the treated animals as a percentage of the vehicle group. Some doses have a count of surviving animals in place of a T/C: the source files T/C as zero there, which appears to mark a toxic dose or a test without result, not a measured value. Some survivor counts are full or nearly so, which does not show that the dose was tolerated: the source hardly ever lists a survival T/C far under the control, and the zero likely stands for such cases as well. Counts of survivors are from the toxicity check (mostly the fifth day) where no day follows; animals may have died later. Schedules are NCI's codes, read here as Q, the interval in days (D) or hours (H), X, the number of doses. Additions like (4×) count equal records among those shown. Some entries hold several experiments; the results are listed from low to high. Where survival is the endpoint, the PubChem record calls one and a half times the control and up active, and a quarter to a half above the control has no call in these data; cut-offs in other NCI protocols can differ. Some T/C values carry the count of animals alive at the toxicity check (mostly the fifth day); without a count, all were alive then.

Test system: AKR/Lw mice, AKR lymphoma ip, median survival T/C
Assay: NCI In Vivo Anticancer Drug Screen. Data for tumor model Lymphoma AKR (Transplanted) (intraperitoneal) in AKR/Lw mice
Conditions: T/C endpoint: median survival time, higher T/C = longer survival
Procedure: The antitumor activity of compounds was measured in mice bearing transplantable tumors. Survival or tumor size were measured and the results are expressed as the measurement made in the treated group (T) divided by the measurement made in the vehicle treated control group (C). The tumor model used in this assay is Lymphoma AKR (Transplanted) (intraperitoneal) in AKR/Lw mice

[1] = dose: 40.0 mg/kg/injection, schedule: Q01DX009 (ip), vehicle: saline
[2] = dose: 100.0 mg/kg/injection, schedule: Q04DX003 (ip), vehicle: saline
[3] = dose: 200.0 mg/kg/injection, schedule: Q01DX001 (ip), vehicle: saline
[4] = dose: 200.0 mg/kg/injection, schedule: Q04DX003 (ip), vehicle: saline

O=c1[nH]cc(F)c(=O)[nH]1
T/C (dose: 2.5 mg/kg/injection, schedule: Q03HX032 (ip), vehicle: saline): 149 % of control | survivor count (dose: 3.75 mg/kg/injection, schedule: Q01DX009 (ip), vehicle: saline): 8 of 10 | T/C (dose: 5.0 mg/kg/injection, schedule: Q01DX005 (ip), vehicle: saline): 138 % of control | T/C (dose: 5.0 mg/kg/injection, schedule: Q01DX015 (ip), vehicle: saline): 144 % of control | T/C (dose: 5.0 mg/kg/injection, schedule: Q03HX024 (ip), vehicle: saline): 147 % of control | T/C (dose: 10.0 mg/kg/injection, schedule: Q01DX001 (ip), vehicle: saline): 142 % of control | T/C (dose: 10.0 mg/kg/injection, schedule: Q01DX005 (ip), vehicle: saline): 132 % of control | T/C (dose: 10.0 mg/kg/injection, schedule: Q01DX009 (ip), vehicle: saline): 100, 105, 111, 111 [7 of 10 alive], 127, 136 % of control [9 of 10 alive] | T/C (dose: 10.0 mg/kg/injection, schedule: Q01DX015 (ip), vehicle: saline): 129 [9 of 10 alive] and 136 % of control | T/C (dose: 10.0 mg/kg/injection, schedule: Q03HX024 (ip), vehicle: saline): 135 % of control | T/C (dose: 10.0 mg/kg/injection, schedule: Q04DX004 (ip), vehicle: saline): 125 % of control | T/C (dose: 12.5 mg/kg/injection, schedule: Q01DX001 (ip), vehicle: saline): 128 % of control | T/C (dose: 12.5 mg/kg/injection, schedule: Q04DX003 (ip), vehicle: saline, evaluated on day 30): 118 % of control | T/C (dose: 12.5 mg/kg/injection, schedule: Q04DX003 (ip), vehicle: saline, evaluated on day 45): 103, 105, 107, 113 % of control | T/C (dose: 12.5 mg/kg/injection, schedule: Q04DX003 (ip), vehicle: saline, evaluated on day 60): 111 and 158 % of control | survivor count (dose: 12.5 mg/kg/injection, schedule: Q04DX003 (ip), vehicle: saline): 4 of 10 | T/C (dose: 18.0 mg/kg/injection, schedule: Q04DX003 (ip), vehicle: saline): 125 % of control | T/C (dose: 20.0 mg/kg/injection, schedule: Q01DX009 (ip), vehicle: saline, evaluated on day 45): 132 % of control | T/C (dose: 20.0 mg/kg/injection, schedule: Q01DX009 (ip), vehicle: saline, evaluated on day 60): 113, 125, 133 [8 of 10 alive], 136 [9 of 10 alive], 147 % of control (2×) | T/C (dose: 20.0 mg/kg/injection, schedule: Q01DX015 (ip), vehicle: saline): 125 % of control | T/C (dose: 20.0 mg/kg/injection, schedule: Q04DX003 (ip), vehicle: saline, evaluated on day 5): 125 % of control | T/C (dose: 20.0 mg/kg/injection, schedule: Q04DX003 (ip), vehicle: saline, evaluated on day 60): 125 % of control | T/C (dose: 20.0 mg/kg/injection, schedule: Q04DX004 (ip), vehicle: saline): 134 % of control | T/C (dose: 25.0 mg/kg/injection, schedule: Q01DX001 (ip), vehicle: saline): 142 % of control [9 of 10 alive] | T/C (dose: 25.0 mg/kg/injection, schedule: Q02DX005 (ip), vehicle: Klucel (hydroxypropylcellulose) (HPC)): 139 % of control | T/C (dose: 25.0 mg/kg/injection, schedule: Q04DX003 (ip), vehicle: saline, evaluated on day 30): 143 and 176 % of control [9 of 10 alive] | T/C (dose: 25.0 mg/kg/injection, schedule: Q04DX003 (ip), vehicle: saline, evaluated on day 45): 114, 123, 127, 150 % of control | T/C (dose: 25.0 mg/kg/injection, schedule: Q04DX003 (ip), vehicle: saline, evaluated on day 60): 119 (2×), 121, 134 [9 of 10 alive], 135 [7 of 10 alive], 146, 147 [9 of 10 alive], 175 % of control | survivor count (dose: 30.0 mg/kg/injection, schedule: Q01DX009 (ip), vehicle: saline): 10 of 10 | survivor count (dose: 30.0 mg/kg/injection, schedule: Q01DX015 (ip), vehicle: saline): 10 of 10 | T/C (dose: 37.5 mg/kg/injection, schedule: Q01DX001 (ip), vehicle: saline, evaluated on day 5): 125 % of control | T/C (dose: 37.5 mg/kg/injection, schedule: Q01DX001 (ip), vehicle: saline, evaluated on day 60): 129 % of control | T/C (dose: 37.5 mg/kg/injection, schedule: Q04DX003 (ip), vehicle: saline): 135 % of control | survivor count (dose: 40.0 mg/kg/injection, schedule: Q01DX001 (ip), vehicle: saline): 10 of 10 | survivor count (dose: 40.0 mg/kg/injection, schedule: Q01DX005 (ip), vehicle: saline): 10 of 10 | T/C [1]: 92 % of control | survivor count [1]: 7 of 10, 8 of 10, 9 of 10, 10 of 10 | survivor count (dose: 40.0 mg/kg/injection, schedule: Q01DX015 (ip), vehicle: saline): 9 of 10 | survivor count (dose: 48.0 mg/kg/injection, schedule: Q04DX003 (ip), vehicle: water): 10 of 10 | T/C (dose: 50.0 mg/kg/injection, schedule: Q01DX001 (ip), vehicle: saline): 121, 121 [8 of 10 alive], 130, 145 % of control | survivor count (dose: 50.0 mg/kg/injection, schedule: Q02DX005 (ip), vehicle: Klucel (hydroxypropylcellulose) (HPC)): 6 of 6 | T/C (dose: 50.0 mg/kg/injection, schedule: Q04DX003 (ip), vehicle: saline, evaluated on day 30): 165 % of control | T/C (dose: 50.0 mg/kg/injection, schedule: Q04DX003 (ip), vehicle: saline, evaluated on day 45): 163, 171, 177, 197 % of control | T/C (dose: 50.0 mg/kg/injection, schedule: Q04DX003 (ip), vehicle: saline, evaluated on day 60): 133, 141 [7 of 10 alive], 141 [9 of 10 alive], 200, 204 % of control | survivor count (dose: 50.0 mg/kg/injection, schedule: Q04DX003 (ip), vehicle: saline): 5 of 10 and 10 of 10 | T/C (dose: 60.0 mg/kg/injection, schedule: Q01DX001 (ip), vehicle: saline): 133 % of control | T/C (dose: 75.0 mg/kg/injection, schedule: Q01DX001 (ip), vehicle: saline): 145 % of control | T/C (dose: 75.0 mg/kg/injection, schedule: Q04DX003 (ip), vehicle: saline): 145 % of control | survivor count (dose: 75.0 mg/kg/injection, schedule: Q04DX004 (ip), vehicle: saline): 10 of 10 | survivor count (dose: 80.0 mg/kg/injection, schedule: Q01DX005 (ip), vehicle: saline): 9 of 10 | survivor count (dose: 80.0 mg/kg/injection, schedule: Q01DX015 (ip), vehicle: saline): 9 of 10 | survivor count (dose: 90.0 mg/kg/injection, schedule: Q04DX008 (ip), vehicle: saline): 10 of 10 | T/C (dose: 100.0 mg/kg/injection, schedule: Q01DX001 (ip), vehicle: saline): 114, 134, 138, 150, 164, 168 % of control | survivor count (dose: 100.0 mg/kg/injection, schedule: Q02DX005 (ip), vehicle: Klucel (hydroxypropylcellulose) (HPC)): 6 of 6 | T/C [2]: 87, 100 [9 of 10 alive], 111, 165 % of control | survivor count [2]: 10 of 10 (2×) | survivor count (dose: 100.0 mg/kg/injection, schedule: Q04DX004 (ip), vehicle: saline): 9 of 10 | T/C (dose: 150.0 mg/kg/injection, schedule: Q01DX001 (ip), vehicle: saline, evaluated on day 5): 105 % of control | T/C (dose: 150.0 mg/kg/injection, schedule: Q01DX001 (ip), vehicle: saline, evaluated on day 60): 141 [9 of 10 alive], 159, 171, 231 % of control | survivor count (dose: 150.0 mg/kg/injection, schedule: Q01DX001 (ip), vehicle: saline): 10 of 10 | survivor count (dose: 150.0 mg/kg/injection, schedule: Q04DX003 (ip), vehicle: saline): 9 of 10 | T/C [3]: 92 and 156 % of control | survivor count [3]: 10 of 10 | survivor count (dose: 200.0 mg/kg/injection, schedule: Q02DX005 (ip), vehicle: Klucel (hydroxypropylcellulose) (HPC)): 6 of 6 | T/C [4]: 91 % of control | survivor count [4]: 10 of 10 | survivor count (dose: 300.0 mg/kg/injection, schedule: Q01DX001 (ip), vehicle: saline): 9 of 10 | survivor count (dose: 400.0 mg/kg/injection, schedule: Q01DX001 (ip), vehicle: saline): 10 of 10 | survivor count (dose: 400.0 mg/kg/injection, schedule: Q04DX003 (ip), vehicle: saline): 10 of 10
